In PMC11982563 one finds binding data, which are given here for one substance.

The assay addresses T1, ANO1-YFP (mouse) (UniProt Q8BHY3).
T1 sequence: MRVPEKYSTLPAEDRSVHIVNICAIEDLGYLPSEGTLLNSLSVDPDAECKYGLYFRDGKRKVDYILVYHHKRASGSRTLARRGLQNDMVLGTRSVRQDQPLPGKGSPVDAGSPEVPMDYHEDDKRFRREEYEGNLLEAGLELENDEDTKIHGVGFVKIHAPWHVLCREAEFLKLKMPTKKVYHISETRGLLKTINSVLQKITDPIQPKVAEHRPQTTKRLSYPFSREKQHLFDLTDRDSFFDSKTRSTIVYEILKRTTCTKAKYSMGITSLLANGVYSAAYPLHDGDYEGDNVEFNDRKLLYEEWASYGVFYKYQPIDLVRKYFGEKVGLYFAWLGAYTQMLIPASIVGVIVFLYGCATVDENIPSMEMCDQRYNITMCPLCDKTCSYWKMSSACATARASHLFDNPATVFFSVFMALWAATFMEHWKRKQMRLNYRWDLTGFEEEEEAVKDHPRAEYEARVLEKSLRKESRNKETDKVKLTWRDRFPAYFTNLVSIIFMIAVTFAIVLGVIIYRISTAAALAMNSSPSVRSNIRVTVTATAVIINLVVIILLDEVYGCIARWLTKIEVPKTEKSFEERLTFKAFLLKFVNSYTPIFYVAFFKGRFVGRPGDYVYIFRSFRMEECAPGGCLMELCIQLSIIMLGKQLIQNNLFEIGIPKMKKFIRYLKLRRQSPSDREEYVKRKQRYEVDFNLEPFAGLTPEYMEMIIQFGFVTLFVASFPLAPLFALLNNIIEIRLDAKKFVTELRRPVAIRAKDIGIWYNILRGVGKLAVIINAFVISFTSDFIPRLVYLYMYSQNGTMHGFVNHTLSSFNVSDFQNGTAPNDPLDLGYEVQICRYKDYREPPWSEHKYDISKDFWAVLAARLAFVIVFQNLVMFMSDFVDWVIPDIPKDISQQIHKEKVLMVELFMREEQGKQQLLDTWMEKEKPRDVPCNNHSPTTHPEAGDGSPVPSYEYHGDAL
Briefly: FRET or BRET; fluorescently tagged proteins co-expressed in HEK293 cells on glass-bottom dishes, live cells in bath solution; imaged before and after 2.5 uM forskolin + 50 uM IBMX; also with CPA, siRNA of ACs and AKAPs, STIM1-/- cells and co-expressed VAPA, E-Syt1, E-Syt2, AC8 or AKAP5.

No constants are given. Whether binding was seen depends on the method and setting. Binding seen in cells or lysates may run through a third protein. Binding calls can cover weak binding; strength is not graded here. Sequences can lack the tags named with a protein.

Take PKA-RII: the binding result is recorded as “binds”.
